# Data reported in PubChem BioAssay AID1918947 (Molecular Pharmacology Branch, DTP, NCI, 2023).
# Values joined by “and” are separate entries in the source; they are usually repeats but may differ in a detail not shown here. Identical values can stand only once. This continues a long series; more values of the same kind are listed elsewhere.
# Tested on: A498 complex spheroid viability
# Assay: Anticancer human tumor A498 cell line growth inhibition;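 further: spheroids exposed to agents for seven days before readout; 100% = DMSO vehicle-treated spheroids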
# Details: active compounds read low
# From the text: Multicellular complex tumor spheroid response to LSD1 Inhibitor Iadademstat in combination with a variety of drugs and investigational agents in selected tumor cell lines
# The current study was undertaken to assess response to LSD1 inhibitors in combination with standard-of-care drugs and investigational agents in solid tumor complex spheroid models as well as in the K-562 leukemia. Complex spheroids include a stromal component modeled by human endothelial cells (HUVEC) and fibroblasts modeled by human mesenchymal stem cells (MSCs). The concentration ranges selected for each drug and investigational agent were based upon clinically achievable concentrations if the clinical Cmax of the agent was known.
# Compounds. The drugs and investigational agents used in this study are listed on Table 1. All of the agents used, including staurosporine (NSC755774) and gemcitabine (NSC613327), were obtained from the Developmental Therapeutics Program, NCI. FDA-approved anticancer drugs are available from the NCI at http://dtp.nci.nih.gov/branches/dscb/oncology_drugset_explanation.html. Drugs and investigational agents were >95% pure by proton nuclear magnetic resonance (NMR) and liquid chromatography/mass spectrometry (LC/MS). Stock solutions were prepared at 400x in DMSO, stored at -70 degrees C, and diluted in fresh medium prior to their use. The final concentration of DMSO in cell culture wells never exceeded 0.25% (v/v). The FDA-approved anticancer drug set is available from the Developmental Therapeutics Program at https://dtp.cancer.gov/organization/dscb/obtaining/available_plates.htm. All drugs and investigational agents were tested over a range starting from a high concentration at or near the clinical Cmax and decreasing in half-log increments. If the clinical Cmax for an agent had not been determined, the highest concentration tested was 10 microM.
# Cell Lines. […]
SMILES,"viability, T/C (compound 0.1 µM)","viability, T/C (compound 0.316 µM)","viability, T/C (compound 10 µM)"
NC1CC1c1ccc(-c2cccc(O)c2)cc1 (stereo not drawn),100% [middle of 25 runs],–,–
NC1CCC(NC2CC2c2ccccc2)CC1 (stereo not drawn),–,94.4% [middle of 23 runs],57.4% and 72.1%
